These results are taken from the supplement of paper PMC3334620.

The full ranking holds about 33,000 sequences; the median of “E-score (-0.5 to 0.5)” is about -0.0014, and the highest 2% start at about 0.25. Some of the results follow.

For this experiment, the target named is T1, Cad1 (UniProt P24813).
T1 sequence: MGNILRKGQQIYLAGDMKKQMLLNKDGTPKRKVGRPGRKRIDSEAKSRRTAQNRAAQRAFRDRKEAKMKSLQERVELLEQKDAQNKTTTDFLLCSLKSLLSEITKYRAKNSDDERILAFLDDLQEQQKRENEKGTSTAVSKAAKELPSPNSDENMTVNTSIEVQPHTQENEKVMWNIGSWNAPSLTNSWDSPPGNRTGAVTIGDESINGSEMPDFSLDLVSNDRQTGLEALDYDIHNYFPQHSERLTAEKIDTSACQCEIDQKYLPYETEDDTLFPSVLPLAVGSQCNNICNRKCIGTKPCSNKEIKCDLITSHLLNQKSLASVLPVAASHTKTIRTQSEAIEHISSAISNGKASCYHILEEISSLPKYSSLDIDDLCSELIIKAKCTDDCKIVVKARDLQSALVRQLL
As to the kind of experiment: PBM E-score (8-mer binding enrichment) (E-score (-0.5 to 0.5)); higher = stronger / more preferred TF binding. The following applies: protein concentration: 100 nM; construct: GST-full length. The method, boiled down: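 Universal all-10-mer Agilent arrays, fresh or stripped once, were converted to double-stranded form by primer extension. GST-tagged yeast transcription factors from PURExpress in vitro transcription/translation, full-length or DNA-binding domain only, were applied at about 100-200 nM and detected with fluorescent anti-GST. After masliner normalisation, the Universal PBM Analysis Suite scored each ungapped eight-base word together with its reverse complement by E-score.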
As to GGTGCCTA, the “PBM E-score” value is -0.0171.

In the case of CAATACAA, the “PBM E-score” value was determined as 0.0733.

CACATTTC: the “PBM E-score” value was 0.142.

As for CAGAGCTA, the “PBM E-score” value was -0.252.

Take AAAAGATT: the “PBM E-score” value is 0.0172.

Consider CGCACAAG, for which the “PBM E-score” value was found to be 0.0424.

Regarding CGGGTACG, the “PBM E-score” value was -0.17.

Take CTTAGCCA: the “PBM E-score” value was -0.024.

For the sequence CTCAGTGC, the “PBM E-score” value stood at 0.0558.

As for CAGGGAGC, the “PBM E-score” value is -0.239.

With CATAACTA, the “PBM E-score” value is -0.00461.

As to GAGGAGAA, the “PBM E-score” value is -0.0942.

Consider ACATCCAA, for which the “PBM E-score” value was -0.114.

GTCCTCCA: the “PBM E-score” value was -0.1.

As to GTTTATTA, the “PBM E-score” value was 0.293.

For ACGGCACA, the “PBM E-score” value is -0.114.

Take AACGGACT: the “PBM E-score” value was -0.0248.

As to CCTAGGAG, the “PBM E-score” value is -0.104.

TAATAGTA: the “PBM E-score” value came to 0.175.

Turning to ATCGGAAG, the “PBM E-score” value was -0.0563.

For GGGCGGAA, the “PBM E-score” value stood at 0.0225.

Consider GGATGAAC, for which the “PBM E-score” value turned out to be 0.0496.

Turning to CCGATCAA, the “PBM E-score” value was -0.0815.

Regarding ACCAAGCG, the “PBM E-score” value is -0.00622.

On to CCCTAAAA, for which the “PBM E-score” value was -0.228.

For GTCGGCCA, the “PBM E-score” value is -0.264.

Regarding TACGATGA, the “PBM E-score” value was 0.00075.

On to ACCCTACC, for which the “PBM E-score” value was -0.0642.

Turning to CTTGTGCA, the “PBM E-score” value is -0.0115.

Regarding AGAGCGTA, the “PBM E-score” value was -0.0972.

For CCTGTAGC, the “PBM E-score” value is -0.149.

Regarding GCCTTAAC, the “PBM E-score” value is -0.087.

Take CTCTGGGC: the “PBM E-score” value was -0.162.

As for CGAGGCGC, the “PBM E-score” value was 0.108.

With AACACCGG, the “PBM E-score” value is 0.0782.

Consider AACCGGGG, for which the “PBM E-score” value was -0.245.

Take AGGGGTAA: the “PBM E-score” value is -0.068.

Turning to AGTGAGCA, the “PBM E-score” value is -0.0577.

As for ATCGAGAG, the “PBM E-score” value was -0.0825.

Regarding CGACGCGC, the “PBM E-score” value came out at 0.142.

On to CGAACCGC, for which the “PBM E-score” value is -0.0247.

Take TATCATAA: the “PBM E-score” value worked out at 0.172.

As for AATGACGC, the “PBM E-score” value was -0.0439.

With GACGCGCA, the “PBM E-score” value came out at 0.0756.

For the sequence ACTATTTC, the “PBM E-score” value is 0.174.

As for ACCCCCCG, the “PBM E-score” value is -0.446.

With GACTAGTA, the “PBM E-score” value is -0.117.

As to ATTTATTA, the “PBM E-score” value came out at 0.186.

In the case of TTTGAAAA, the “PBM E-score” value came out at 0.161.

In the case of AATCAGAA, the “PBM E-score” value is -0.0255.

Turning to AATTTGAG, the “PBM E-score” value came out at 0.035.

Consider ATCTCCAT, for which the “PBM E-score” value is -0.123.

Turning to GGACTGAC, the “PBM E-score” value was -0.103.

On to GGCCAGCC, for which the “PBM E-score” value was -0.161.

Consider CACTGTCG, for which the “PBM E-score” value is -0.21.

Turning to ACAAGCTC, the “PBM E-score” value is -0.108.

Turning to CGAAGGAC, the “PBM E-score” value is -0.083.

With TGGACAAA, the “PBM E-score” value is 0.178.

In the case of CCGTTTCG, the “PBM E-score” value was determined as 0.143.

In the case of CGCACCGA, the “PBM E-score” value was -0.0919.

ACAGTTCG: the “PBM E-score” value came to 0.142.

In the case of AATTCGAC, the “PBM E-score” value is -0.207.

With CGTTGCAC, the “PBM E-score” value was 0.04.

As to GATATCAC, the “PBM E-score” value turned out to be 0.086.

On to CCACTGAC, for which the “PBM E-score” value was -0.168.

With CGCGTGTA, the “PBM E-score” value was found to be 0.0728.

Regarding CGATTTTC, the “PBM E-score” value turned out to be 0.158.

For the sequence ACGCGTCG, the “PBM E-score” value was 0.246.

Take AGATCTGA: the “PBM E-score” value came to 0.0298.

Regarding CCTAGTCC, the “PBM E-score” value is -0.231.

For the sequence TCTGTACA, the “PBM E-score” value was determined as 0.111.

On to GTCGCTCA, for which the “PBM E-score” value is -0.074.

Regarding AAGGCGGG, the “PBM E-score” value is -0.17.

CTCAGCCC: the “PBM E-score” value is -0.21.

AGCTACGA: the “PBM E-score” value was -0.0329.

As to CATTCTCC, the “PBM E-score” value was -0.0219.

Take TCCTTCAA: the “PBM E-score” value is -0.00792.

Turning to ACGATGTG, the “PBM E-score” value was determined as 0.058.

For TCCATCCA, the “PBM E-score” value is -0.0893.

In the case of CTCCACCC, the “PBM E-score” value is -0.217.

For the sequence TGTGAAAA, the “PBM E-score” value turned out to be 0.103.

Consider ACATATAG, for which the “PBM E-score” value was -0.0418.

Regarding AAGGAACT, the “PBM E-score” value was -0.0734.

For the sequence CGAATTGA, the “PBM E-score” value worked out at 0.0375.

On to GATTGCAC, for which the “PBM E-score” value is 0.05.

In the case of AAGATGGT, the “PBM E-score” value was -0.107.
